Measurements from patent EP4599841A1, “PEPTIDES FOR USE IN A METHOD FOR THE TREATMENT OF CANCER” (Universidad de Murcia, priority 2024, dated 2025).
Entries after “also recorded” stand apart in the source; their conditions may differ. Part of at least one peptide drawing is inferred or uncertain, most often the ends. Non-standard residues stand in square brackets, D forms with d. Residues, ends and D or L forms follow the SMILES beside them. pS = N[C@@H](COP(=O)(O)O)C(=O)O

What was measured:
GB-PC interactions = test: Adhesion assay: GB cells on a monolayer of peptide-pretreated pericytes; type: cell-based, human; details: several GB cell lines, co-cultured 48 hours
GB cells = test: Survival assay: GB cell death by LIVE/DEAD stain and flow cytometry after coculture with pretreated pericytes; type: cell-based, human; details: in presence of PCs pretreated with peptide, compared to nontreated control or pCT
[1] = system: GB-U87 cell co-cultured with pretreated PC; test: Proliferation assay: luciferase activity of GB-U87 cells co-cultured 48 h with peptide-pretreated pericytes; type: cell-based, human
[2] = system: human GB cells (U87 and U251 GB lines); test: Xenografts of human GB cells in mouse brain, intravenous peptide therapy, STEM121 immunohistochemistry; type: in vivo, C57BL/6 wild type mice
[3] = system: phagocytic populations and T-cell populations associated to the tumor; test: Immunohistochemistry of tumor-associated phagocytic and T-cell populations in brains of treated GB mice; type: in vivo
[4] = compared to mice untreated or treated with the control peptide

CC[C@H](C)[C@H](NC(=O)[C@H](Cc1ccccc1)NC(=O)[C@H](C)NC(=O)[C@H](Cc1ccc(O)cc1)NC(=O)CNC(=O)[C@H](CCCNC(=N)N)NC(=O)[C@@H]1CCCN1C(=O)[C@H](CCCCN)NC(=O)CNC(=O)[C@H](COP(=O)(O)O)NC(=O)[C@H](CCCNC(=N)N)NC(=O)[C@H](CCCCN)NC(=O)[C@H](CO)NC(=O)[C@H](Cc1ccc(O)cc1)NC(=O)[C@@H](NC(=O)[C@H](CCSC)NC(=O)[C@H](Cc1c[nH]cn1)NC(=O)[C@@H](NC(=O)[C@@H](N)CCCNC(=N)N)[C@@H](C)CC)C(C)C)C(=O)N[C@@H](CCC(=O)O)C(=O)N[C@@H](Cc1ccc(O)cc1)C(=O)O [P140, RIHMVYSKRpSGKPRGYAFIEY] (H-RIHMVYSKR[pS]GKPRGYAFIEY-OH)
stable cell-to-cell interactions between GB and PC (percentage of adhesion) (GB-PC interactions): significantly reduced | GB cell survival (GB cells): affected | luciferase expression related to GB cell levels in the cocultures PCCGB ([1]; PC pretreated 1 hour with peptide, coculture 48 hours, GB-U87 luciferase): significantly reduced | optimal concentration ([1]; reduction of luciferase in PC-GB coculture, 48 hours): 10 µM | dependence of the effect on luciferase expression on concentration ([1]; several concentrations): dependent on the peptide concentration | dose dependence of the effect on the tumor cells ([2]; 3 peptide concentrations (0.25, 0.125 and 0.0625 ug/ul), intravenous): dose dependent | tumor masses as the peptide concentration was reduced ([2]; below 0.25 ug/ul (0.125 and 0.0625 ug/ul), intravenous): started to be detected | GB tumor cells (STEM121) in grafted brains ([2]; highest dose: 50 µg, 0.25 ug/ul, four intravenous doses): not detected; also recorded: hardly detected | tumor mass ([2]; lower dose concentration, four intravenous doses): evident reduced tumor mass | effect on tumor cells versus controls ([2]; lowest dose of the peptide, four intravenous doses): no significant differences | infiltration of CD3+ cells ([3]; after intravenous treatment): just show remaining T cells after tumor elimination | infiltration of T cells populations associated to the tumor progression ([3]; after intravenous treatment): reduced | infiltration of immunosuppressive cells presenting FOXP3 ([3]; after intravenous treatment): hardly detection; also recorded: without any evidence | major remaining T cells ([3]; after intravenous treatment): CD8^+ | phagocytic immune populations associated to the tumor ([3]; after intravenous treatment): did not show | remaining CD4+ cells ([3]; after intravenous treatment): hardly detecting | expression of the microglia marker Iba-1 [3, 4]: significantly reduced | macrophages activation marker CD68+ [3, 4]: hardly detected; also recorded: significantly reduced
